Publication PMC11272775, “Epigenetic memory is governed by an effector recruitment specificity toggle in Heterochromatin Protein 1” (Nature Communications, 2024)
These are yes or no findings as the source states them, for the method shown. Binding seen in cells or lysates may run through a third protein. A yes stands for co-enrichment or nearness to the bait. Other partners may have been found.

The chains behind the UniProt entries cited, without tags or fusion partners.
UniProt P40381: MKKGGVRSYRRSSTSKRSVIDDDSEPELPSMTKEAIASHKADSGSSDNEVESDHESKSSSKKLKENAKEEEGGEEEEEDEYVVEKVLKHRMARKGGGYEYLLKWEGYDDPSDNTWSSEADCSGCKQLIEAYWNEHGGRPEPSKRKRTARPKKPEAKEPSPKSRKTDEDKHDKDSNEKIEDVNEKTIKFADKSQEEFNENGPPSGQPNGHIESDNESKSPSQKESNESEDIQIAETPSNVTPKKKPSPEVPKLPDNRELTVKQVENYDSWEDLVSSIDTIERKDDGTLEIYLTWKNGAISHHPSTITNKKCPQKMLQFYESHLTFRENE
UniProt O94603: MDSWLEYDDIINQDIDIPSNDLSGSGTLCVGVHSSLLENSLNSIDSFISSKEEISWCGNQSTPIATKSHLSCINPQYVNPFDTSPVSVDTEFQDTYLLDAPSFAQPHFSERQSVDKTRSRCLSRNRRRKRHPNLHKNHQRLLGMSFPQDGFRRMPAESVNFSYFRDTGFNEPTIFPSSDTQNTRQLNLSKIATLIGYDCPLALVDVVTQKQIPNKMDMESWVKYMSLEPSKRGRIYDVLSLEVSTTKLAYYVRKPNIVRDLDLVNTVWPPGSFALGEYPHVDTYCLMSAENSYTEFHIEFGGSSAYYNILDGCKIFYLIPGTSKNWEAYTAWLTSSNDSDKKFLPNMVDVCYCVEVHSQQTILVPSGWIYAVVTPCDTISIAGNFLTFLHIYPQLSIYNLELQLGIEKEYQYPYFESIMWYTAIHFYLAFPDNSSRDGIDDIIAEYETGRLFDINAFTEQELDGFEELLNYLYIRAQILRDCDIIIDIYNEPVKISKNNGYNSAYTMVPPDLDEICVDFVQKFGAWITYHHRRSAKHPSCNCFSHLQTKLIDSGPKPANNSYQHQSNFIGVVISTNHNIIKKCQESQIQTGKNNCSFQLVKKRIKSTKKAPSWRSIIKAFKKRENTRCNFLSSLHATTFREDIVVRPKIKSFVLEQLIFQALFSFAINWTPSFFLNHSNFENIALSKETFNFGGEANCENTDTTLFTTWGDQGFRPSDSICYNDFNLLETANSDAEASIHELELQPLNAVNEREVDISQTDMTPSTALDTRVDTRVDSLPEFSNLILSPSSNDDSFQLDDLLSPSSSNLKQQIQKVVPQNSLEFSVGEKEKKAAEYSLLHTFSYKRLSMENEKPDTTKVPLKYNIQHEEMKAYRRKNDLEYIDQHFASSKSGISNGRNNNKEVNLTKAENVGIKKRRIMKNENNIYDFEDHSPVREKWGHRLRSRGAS

Target: 3XFLAG-Swi6-WT (S. pombe strain) (S. pombe) (UniProt P40381)
Assay: affinity purification with mass spectrometry; tandem mass tag affinity purification of N-terminal 3XFLAG-Swi6 from S. pombe; normalised to untagged Swi6, abundance relative to 3XFLAG-Swi6-WT (N = 3)

binding: binds
Substance: Epe1 (from UniProt O94603 1-948)
